These are yes or no findings as the source states them, for the method shown. Binding seen in cells or lysates may run through a third protein.
Molecular target: TRIM71 ΔNHL6 (human)
Assay: co-IP; TRIM71 ΔNHL6 mutant (Supplementary Figure S8E); cells, tag and beads not stated for this experiment

binding: no binding
B1: UPF1 (protein, UniProt Q92900 1-1129)
chain: MSVEAYGPSSQTLTFLDTEEAELLGADTQGSEFEFTDFTLPSQTQTPPGGPGGPGGGGAGGPGGAGAGAAAGQLDAQVGPEGILQNGAVDDSVAKTSQLLAELNFEEDEEDTYYTKDLPIHACSYCGIHDPACVVYCNTSKKWFCNGRGNTSGSHIVNHLVRAKCKEVTLHKDGPLGETVLECYNCGCRNVFLLGFIPAKADSVVVLLCRQPCASQSSLKDINWDSSQWQPLIQDRCFLSWLVKIPSEQEQLRARQITAQQINKLEELWKENPSATLEDLEKPGVDEEPQHVLLRYEDAYQYQNIFGPLVKLEADYDKKLKESQTQDNITVRWDLGLNKKRIAYFTLPKTDSGNEDLVIIWLRDMRLMQGDEICLRYKGDLAPLWKGIGHVIKVPDNYGDEIAIELRSSVGAPVEVTHNFQVDFVWKSTSFDRMQSALKTFAVDETSVSGYIYHKLLGHEVEDVIIKCQLPKRFTAQGLPDLNHSQVYAVKTVLQRPLSLIQGPPGTGKTVTSATIVYHLARQGNGPVLVCAPSNIAVDQLTEKIHQTGLKVVRLCAKSREAIDSPVSFLALHNQIRNMDSMPELQKLQQLKDETGELSSADEKRYRALKRTAERELLMNADVICCTCVGAGDPRLAKMQFRSILIDESTQATEPECMVPVVLGAKQLILVGDHCQLGPVVMCKKAAKAGLSQSLFERLVVLGIRPIRLQVQYRMHPALSAFPSNIFYEGSLQNGVTAADRVKKGFDFQWPQPDKPMFFYVTQGQEEIASSGTSYLNRTEAANVEKITTKLLKAGAKPDQIGIITPYEGQRSYLVQYMQFSGSLHTKLYQEVEIASVDAFQGREKDFIILSCVRANEHQGIGFLNDPRRLNVALTRARYGVIIVGNPKALSKQPLWNHLLNYYKEQKVLVEGPLNNLRESLMQFSKPRKLVNTINPGARFMTTAMYDAREAIIPGSVYDRSSQGRPSSMYFQTHDQIGMISAGPSHVAAMNIPIPFNLVMPPMPPPGYFGQANGPAAGRGTPKGKTGRGGRQKNRFGLPGPSQTNLPNSQASQDVASQPFSQGALTQGYISMSQPSQMSQPGLSQPELSQDSYLGDEFKSQIDVALSQDSTYQGERAYQHGGVTGLSQY

Source: PMC7145526, “The mRNA repressor TRIM71 cooperates with Nonsense-Mediated Decay factors to destabilize the mRNA of CDKN1A/p21”
